Laboratory results taken from article PMC4389572.
Results are given in words; binding and its absence hold for the method and conditions named.

Target: SH3_(lin-wt), linear N-terminal SH3 domain of c-Crk (residues 134-190 with an additional Gly191) (murine)
Test: NMR relaxation (backbone 1H T2 and overall rotational correlation time from 15N relaxation); ~1 mM protein in 20 mM sodium phosphate, 100 mM NaCl, 20 mM DTT-d10, 10% D2O, 0.2% NaN3, pH 7.2, 34°C; both purified

binding: no binding (tested: ~1 mM)
B1: SH3_(lin-wt), linear N-terminal SH3 domain of c-Crk (residues 134-190 with an additional Gly191) (domain or fragment)
chain: AEYVRALFDFNGNDEEDLPFKKGDILRIRDKPEEQWWNAEDSEGKRGMIPVPYVEKYG
